A short description of the data set: general procedure: solution-phase peptide synthesis; mixed anhydride method. As to conditions: late stage modification step.

Turning to “H-Thr(tBu)-Cys(Acm1-Pro-Pro-Cys-Pro-Ala-Pro-OH”, the step yield is listed as 93%.

The values are drawn from patent publication US5041533 (dated 1991).
